The test system of the assay is tubulin. Kind of assay: inhibition of [3H]colchicine binding to tubulin. The note with it: 100 μM inhibitor, 1.0 μM tubulin, 2 μM [3H]colchicine, 10 min at 37° C.; ± S.D. As to the method: Incubation was for 10 min. at 37° C.
Incubation was for 10 mi. at 37° C. Average values obtained in three independent experiments are presented in the table, except for 2-methoxyestrone, which was only examined twice. S.D., standard deviation.

SMILES strings stand for the structures.

In the case of `CC/C(=C(/CC)c1ccc(O)cc1)c1ccc(O)cc1` [Diethylstilbestrol], the “Percentage Inhibition of colchicine binding to tubulin” value is on record as 30 ± 4%.

Source of the values: patent publication US20020002294A1, “Estrogenic compounds as antiangiogenic agents” (priority 1997, published 2002).
